Measured values from the supplement of paper PMC10849652.
Some of the results follow.

By UniProt entry, the sequences of proteins in these tests, tags left out. Where a name states a change or a piece, a line headed by the entry shows the natural chain unless it says otherwise.
UniProt Q6ZPD9: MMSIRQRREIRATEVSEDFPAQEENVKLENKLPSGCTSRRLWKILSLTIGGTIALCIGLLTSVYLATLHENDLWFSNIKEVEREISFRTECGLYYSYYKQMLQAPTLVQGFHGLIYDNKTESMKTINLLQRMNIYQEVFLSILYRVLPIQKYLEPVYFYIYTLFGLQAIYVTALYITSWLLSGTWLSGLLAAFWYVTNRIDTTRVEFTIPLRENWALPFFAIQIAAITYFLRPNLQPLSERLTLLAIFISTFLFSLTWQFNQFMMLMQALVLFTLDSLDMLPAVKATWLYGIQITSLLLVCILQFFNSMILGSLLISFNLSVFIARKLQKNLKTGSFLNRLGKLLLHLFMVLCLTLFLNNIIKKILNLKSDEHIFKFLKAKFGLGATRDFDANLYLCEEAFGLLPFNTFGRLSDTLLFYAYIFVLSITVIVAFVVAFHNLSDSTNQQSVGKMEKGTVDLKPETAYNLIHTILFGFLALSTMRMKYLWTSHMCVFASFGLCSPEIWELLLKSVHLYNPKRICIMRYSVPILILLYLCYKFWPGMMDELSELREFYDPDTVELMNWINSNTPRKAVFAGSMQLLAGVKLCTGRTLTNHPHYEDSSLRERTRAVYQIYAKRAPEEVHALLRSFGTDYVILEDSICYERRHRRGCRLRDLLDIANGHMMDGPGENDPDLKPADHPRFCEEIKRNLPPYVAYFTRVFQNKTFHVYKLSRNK
UniProt Q92784, whole entry, looked up: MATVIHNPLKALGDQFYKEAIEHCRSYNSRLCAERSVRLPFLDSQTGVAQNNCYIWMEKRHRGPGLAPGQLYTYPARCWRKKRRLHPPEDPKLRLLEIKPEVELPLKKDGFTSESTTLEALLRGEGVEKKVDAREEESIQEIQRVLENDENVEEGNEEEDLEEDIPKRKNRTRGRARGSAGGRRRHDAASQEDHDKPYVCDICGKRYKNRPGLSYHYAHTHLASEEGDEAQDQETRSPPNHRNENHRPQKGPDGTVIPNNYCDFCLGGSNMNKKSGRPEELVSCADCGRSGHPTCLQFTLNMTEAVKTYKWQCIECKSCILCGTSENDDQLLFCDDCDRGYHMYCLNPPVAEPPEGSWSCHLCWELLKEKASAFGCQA
UniProt Q9BQC3: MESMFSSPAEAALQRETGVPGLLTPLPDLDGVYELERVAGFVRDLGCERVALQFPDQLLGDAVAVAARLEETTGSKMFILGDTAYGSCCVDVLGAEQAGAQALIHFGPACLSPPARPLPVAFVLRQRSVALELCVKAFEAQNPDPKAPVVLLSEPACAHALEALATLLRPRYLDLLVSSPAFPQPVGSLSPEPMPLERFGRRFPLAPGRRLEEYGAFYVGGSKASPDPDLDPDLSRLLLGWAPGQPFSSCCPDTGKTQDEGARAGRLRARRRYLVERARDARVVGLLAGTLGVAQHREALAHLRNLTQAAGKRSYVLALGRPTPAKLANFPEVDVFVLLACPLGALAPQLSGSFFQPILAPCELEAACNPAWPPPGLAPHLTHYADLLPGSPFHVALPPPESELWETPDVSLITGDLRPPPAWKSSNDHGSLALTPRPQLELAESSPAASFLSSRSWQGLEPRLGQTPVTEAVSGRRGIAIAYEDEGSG
UniProt P63167, whole entry, looked up: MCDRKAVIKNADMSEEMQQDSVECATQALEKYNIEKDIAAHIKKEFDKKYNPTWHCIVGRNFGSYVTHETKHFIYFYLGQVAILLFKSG
UniProt Q9BVJ7: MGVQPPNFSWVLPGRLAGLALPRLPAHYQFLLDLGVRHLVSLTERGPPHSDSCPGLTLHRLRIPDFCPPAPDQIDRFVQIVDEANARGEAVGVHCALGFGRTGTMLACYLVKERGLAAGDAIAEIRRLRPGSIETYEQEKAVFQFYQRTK
UniProt Q9BUP0: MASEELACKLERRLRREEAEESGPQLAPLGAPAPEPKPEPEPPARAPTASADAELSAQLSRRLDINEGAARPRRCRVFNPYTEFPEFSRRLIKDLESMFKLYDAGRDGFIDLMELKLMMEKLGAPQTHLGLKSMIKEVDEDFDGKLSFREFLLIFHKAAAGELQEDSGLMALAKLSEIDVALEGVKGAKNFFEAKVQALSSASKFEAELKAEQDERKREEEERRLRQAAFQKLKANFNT
UniProt Q13011: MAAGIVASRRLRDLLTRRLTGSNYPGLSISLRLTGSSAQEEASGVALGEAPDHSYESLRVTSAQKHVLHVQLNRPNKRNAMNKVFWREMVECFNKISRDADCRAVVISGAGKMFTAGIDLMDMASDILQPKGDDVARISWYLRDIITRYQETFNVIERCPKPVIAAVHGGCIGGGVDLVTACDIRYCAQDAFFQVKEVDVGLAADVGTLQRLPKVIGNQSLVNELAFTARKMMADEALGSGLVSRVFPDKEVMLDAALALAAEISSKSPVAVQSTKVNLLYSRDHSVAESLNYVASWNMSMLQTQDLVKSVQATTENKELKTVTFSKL
UniProt Q99848: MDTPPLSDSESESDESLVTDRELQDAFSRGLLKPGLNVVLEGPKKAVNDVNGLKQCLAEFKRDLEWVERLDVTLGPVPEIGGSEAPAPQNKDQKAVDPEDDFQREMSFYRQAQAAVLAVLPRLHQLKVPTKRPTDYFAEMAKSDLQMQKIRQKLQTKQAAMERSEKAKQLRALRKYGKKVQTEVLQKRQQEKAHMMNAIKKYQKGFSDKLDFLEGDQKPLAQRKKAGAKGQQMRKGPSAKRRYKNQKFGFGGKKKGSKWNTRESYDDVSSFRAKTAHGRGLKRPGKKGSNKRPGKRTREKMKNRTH
UniProt P26641, whole entry, looked up: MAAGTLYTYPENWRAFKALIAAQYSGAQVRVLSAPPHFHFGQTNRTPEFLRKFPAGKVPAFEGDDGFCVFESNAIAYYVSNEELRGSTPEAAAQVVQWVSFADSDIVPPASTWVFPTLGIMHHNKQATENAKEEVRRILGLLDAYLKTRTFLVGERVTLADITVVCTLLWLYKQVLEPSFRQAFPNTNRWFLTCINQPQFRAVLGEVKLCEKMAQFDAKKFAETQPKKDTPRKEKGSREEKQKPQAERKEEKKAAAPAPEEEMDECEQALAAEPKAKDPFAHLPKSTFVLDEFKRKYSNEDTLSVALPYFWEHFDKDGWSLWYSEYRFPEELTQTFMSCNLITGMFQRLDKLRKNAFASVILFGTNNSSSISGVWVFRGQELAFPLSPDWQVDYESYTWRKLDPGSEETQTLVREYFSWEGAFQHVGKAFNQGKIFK
UniProt Q9H2P9: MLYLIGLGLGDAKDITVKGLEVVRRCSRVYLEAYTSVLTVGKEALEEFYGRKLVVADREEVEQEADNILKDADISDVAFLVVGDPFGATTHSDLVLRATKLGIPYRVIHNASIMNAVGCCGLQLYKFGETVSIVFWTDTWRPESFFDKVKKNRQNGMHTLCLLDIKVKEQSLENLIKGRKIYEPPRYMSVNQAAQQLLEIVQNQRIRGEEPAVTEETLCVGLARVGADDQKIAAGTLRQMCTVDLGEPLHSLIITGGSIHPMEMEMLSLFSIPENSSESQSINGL
UniProt Q9NZJ0: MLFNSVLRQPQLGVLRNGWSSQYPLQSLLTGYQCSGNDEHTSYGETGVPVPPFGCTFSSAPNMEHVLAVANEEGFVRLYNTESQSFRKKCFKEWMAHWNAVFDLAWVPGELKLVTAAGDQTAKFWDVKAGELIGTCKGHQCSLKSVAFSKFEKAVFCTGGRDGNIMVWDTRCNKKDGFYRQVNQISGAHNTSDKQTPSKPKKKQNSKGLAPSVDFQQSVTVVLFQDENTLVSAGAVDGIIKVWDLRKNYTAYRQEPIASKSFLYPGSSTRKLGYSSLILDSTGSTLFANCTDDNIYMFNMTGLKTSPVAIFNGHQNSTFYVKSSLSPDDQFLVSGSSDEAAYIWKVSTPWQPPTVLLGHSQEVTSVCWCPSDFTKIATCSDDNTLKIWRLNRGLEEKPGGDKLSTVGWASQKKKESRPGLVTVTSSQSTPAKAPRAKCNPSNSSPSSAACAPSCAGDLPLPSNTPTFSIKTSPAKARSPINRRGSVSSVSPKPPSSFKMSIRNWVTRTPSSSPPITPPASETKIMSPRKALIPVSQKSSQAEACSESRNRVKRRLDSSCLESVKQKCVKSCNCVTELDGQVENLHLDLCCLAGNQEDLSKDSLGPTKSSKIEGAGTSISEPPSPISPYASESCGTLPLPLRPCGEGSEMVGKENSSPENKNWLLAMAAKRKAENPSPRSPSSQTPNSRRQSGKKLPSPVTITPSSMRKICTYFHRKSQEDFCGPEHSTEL
UniProt P42126: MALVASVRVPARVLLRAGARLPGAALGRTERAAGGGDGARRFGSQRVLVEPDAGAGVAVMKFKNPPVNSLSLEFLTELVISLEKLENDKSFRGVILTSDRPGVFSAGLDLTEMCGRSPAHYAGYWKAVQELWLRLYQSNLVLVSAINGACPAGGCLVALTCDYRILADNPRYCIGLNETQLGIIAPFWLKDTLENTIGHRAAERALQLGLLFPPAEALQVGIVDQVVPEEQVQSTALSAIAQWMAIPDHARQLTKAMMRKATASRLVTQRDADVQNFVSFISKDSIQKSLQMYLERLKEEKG
UniProt P29692: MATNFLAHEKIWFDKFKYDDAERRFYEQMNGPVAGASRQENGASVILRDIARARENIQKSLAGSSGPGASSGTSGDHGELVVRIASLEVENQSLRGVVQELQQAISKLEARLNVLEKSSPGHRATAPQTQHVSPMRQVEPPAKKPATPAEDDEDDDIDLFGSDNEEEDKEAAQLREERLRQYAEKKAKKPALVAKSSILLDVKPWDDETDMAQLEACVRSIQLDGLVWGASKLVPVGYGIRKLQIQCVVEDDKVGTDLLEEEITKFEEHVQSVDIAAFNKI
UniProt O77932: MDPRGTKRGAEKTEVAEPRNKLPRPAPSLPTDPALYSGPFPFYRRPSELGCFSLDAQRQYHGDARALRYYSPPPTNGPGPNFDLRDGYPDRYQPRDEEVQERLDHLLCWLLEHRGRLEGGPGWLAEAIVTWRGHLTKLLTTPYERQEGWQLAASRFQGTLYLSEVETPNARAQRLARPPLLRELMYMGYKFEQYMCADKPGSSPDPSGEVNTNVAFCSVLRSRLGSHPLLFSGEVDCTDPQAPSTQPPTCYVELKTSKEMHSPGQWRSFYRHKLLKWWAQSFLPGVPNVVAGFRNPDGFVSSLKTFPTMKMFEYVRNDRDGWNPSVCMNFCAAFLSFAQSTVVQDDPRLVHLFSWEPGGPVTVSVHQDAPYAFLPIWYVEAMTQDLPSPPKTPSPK
EEF1AKMT2, A0A494BZY7, UniProt A0A494BZY7, whole entry, looked up: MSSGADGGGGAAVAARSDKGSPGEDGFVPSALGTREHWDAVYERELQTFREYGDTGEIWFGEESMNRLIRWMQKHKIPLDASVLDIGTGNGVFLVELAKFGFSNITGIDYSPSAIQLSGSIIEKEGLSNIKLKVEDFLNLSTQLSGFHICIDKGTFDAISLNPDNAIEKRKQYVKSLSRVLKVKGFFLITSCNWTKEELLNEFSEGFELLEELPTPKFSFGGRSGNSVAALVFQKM
UniProt Q3B7T1: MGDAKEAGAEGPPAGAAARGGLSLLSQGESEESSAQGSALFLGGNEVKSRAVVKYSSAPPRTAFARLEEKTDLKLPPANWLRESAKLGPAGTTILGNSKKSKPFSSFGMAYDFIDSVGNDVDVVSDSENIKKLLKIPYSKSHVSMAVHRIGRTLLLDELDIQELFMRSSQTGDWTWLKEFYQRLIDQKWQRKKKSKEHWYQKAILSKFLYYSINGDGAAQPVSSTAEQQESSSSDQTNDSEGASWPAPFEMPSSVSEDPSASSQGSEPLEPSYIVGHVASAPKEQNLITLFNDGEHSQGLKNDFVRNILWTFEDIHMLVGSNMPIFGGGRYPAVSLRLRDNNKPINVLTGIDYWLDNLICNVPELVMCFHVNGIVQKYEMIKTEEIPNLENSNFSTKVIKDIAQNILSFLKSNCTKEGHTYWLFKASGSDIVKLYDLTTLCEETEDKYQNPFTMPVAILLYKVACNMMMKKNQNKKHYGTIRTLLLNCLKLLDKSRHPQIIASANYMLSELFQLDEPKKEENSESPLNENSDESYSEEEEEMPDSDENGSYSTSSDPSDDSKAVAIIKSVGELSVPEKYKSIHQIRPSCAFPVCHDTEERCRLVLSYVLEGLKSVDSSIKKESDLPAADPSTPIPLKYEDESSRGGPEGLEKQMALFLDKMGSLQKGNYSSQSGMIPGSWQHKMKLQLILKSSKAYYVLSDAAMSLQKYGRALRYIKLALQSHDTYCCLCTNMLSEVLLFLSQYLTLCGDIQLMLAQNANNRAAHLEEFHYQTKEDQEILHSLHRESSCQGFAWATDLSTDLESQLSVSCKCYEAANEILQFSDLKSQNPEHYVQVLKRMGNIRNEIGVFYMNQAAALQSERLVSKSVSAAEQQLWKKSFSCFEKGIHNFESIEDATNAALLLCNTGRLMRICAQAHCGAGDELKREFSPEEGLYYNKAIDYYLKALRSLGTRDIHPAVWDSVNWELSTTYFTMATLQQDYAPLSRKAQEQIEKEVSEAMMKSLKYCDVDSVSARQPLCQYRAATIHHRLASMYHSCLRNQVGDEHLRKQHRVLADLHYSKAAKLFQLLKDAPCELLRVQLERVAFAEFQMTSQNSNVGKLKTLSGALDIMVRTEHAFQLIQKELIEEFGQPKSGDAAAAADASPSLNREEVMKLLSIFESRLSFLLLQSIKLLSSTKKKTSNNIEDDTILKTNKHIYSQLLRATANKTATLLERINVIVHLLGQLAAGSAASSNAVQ

compound: C1=CC=C(C=C1)[C@H](COC2=CC3=C(C=C2)NC(=O)N3)NC(=O)C4=CC=CN(C4=O)CC5=CC(=C(C=C5)F)F; assay: log2 fold change, soluble protein after heating vs DMSO (PISA); higher = thermal stabilisation; K562 lysate, 10 uM; active = over 0.2 and 3.5 SD of the protein, either way, in both replicates (recomputed)
In short: (§1)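 K562 pellets were dounce-homogenised in PBS pH 7.4 containing 1 mM MgCl2, and the crude extract, at 1 mg/mL protein, was exposed to 10 μM compound for 30 min. Aliquots were heated for 3 min across 48°C-58°C, pooled, brought to 0.5% NP-40 at 4°C and spun at 21,000xg for 90 min, with the supernatant taken as soluble protein. TMTpro 16plex LC-MS/MS with equalised channel sums quantified that protein. Values are log-two fold changes in thermal stability relative to solvent controls, taken from duplicates.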

| Target | log2 fold change |
| --- | --- |
| DPY19L3 (UniProt Q6ZPD9) | inactive: 0.183 |
| EIF1B (UniProt O60739) | inactive: 0.28 |
| DPF1 isoform 2 (UniProt Q92782) | inactive: 0.058 |
| DPF3 isoform 3 (UniProt Q92784) | inactive: -0.064 |
| EFHD2 (UniProt Q96C19) | inactive: 0.035 |
| DPH6 (UniProt Q7L8W6) | inactive: 0.01 |
| DYNLL2 (UniProt Q96FJ2) | inactive: -0.075 |
| DPH2 (UniProt Q9BQC3) | inactive: 0.028 |
| DYNC2LI1 (UniProt Q8TCX1) | inactive: 0.013 |
| EFTUD2 (UniProt Q15029) | inactive: 0.014 |
| DUT (UniProt H0YMP1) | inactive: -0.232 |
| DRAP1 isoform 2 (UniProt Q14919) | inactive: 0.023 |
| DYNLL1 (UniProt P63167) | inactive: 0.016 |
| DUSP23 (UniProt Q9BVJ7) | inactive: -0.164 |
| EFHD1 (UniProt Q9BUP0) | inactive: -0.014 |

compound: CC1=C(SC2=C1C(=N[C@H](C3=NN=C(N32)C)CC(=O)N)C4=CC=C(C=C4)Cl)C; assay: as above
In short: as §1

| Target | log2 fold change |
| --- | --- |
| EEF1AKMT4 (UniProt P0DPD7) | inactive: 0.027 |
| DPH3 (UniProt Q96FX2) | inactive: -0.001 |
| ECH1 (UniProt Q13011) | inactive: 0.008 |
| EFL1 (UniProt Q7Z2Z2) | inactive: -0.017 |
| EBNA1BP2 (UniProt Q99848) | inactive: -0.012 |
| EAF1 (UniProt Q96JC9) | inactive: -0.054 |
| DYSF isoform 13 (UniProt O75923) | inactive: -0.021 |
| DTX3L (UniProt Q8TDB6) | inactive: -0.02 |
| EEF1G isoform 2 (UniProt P26641) | inactive: -0.017 |
| DPH5 isoform 5 (UniProt Q9H2P9) | inactive: -0.024 |
| DST (UniProt Q03001) | inactive: 0.042 |
| DTNBP1 (UniProt Q96EV8) | inactive: 0.043 |
| DSC2 (UniProt Q02487) | inactive: 0.009 |
| DTL (UniProt Q9NZJ0) | inactive: 0.038 |
| ECI1 (UniProt P42126) | inactive: 0.007 |
| EEF1D isoform 3 (UniProt P29692) | inactive: 0.113 |
| DVL2 (UniProt O14641) | inactive: -0.01 |
| EHBP1 isoform 2 (UniProt Q8NDI1) | inactive: -0.037 |
| DXO (UniProt O77932) | inactive: 0.13 |

| Target | log2 fold change |
| --- | --- |
| EIF2A (UniProt Q9BY44) | inactive: 0.018 |
| EEF1AKMT2, A0A494BZY7 | inactive: -0.047 |
| DUT (UniProt P33316) | inactive: -0.03 |
| EDRF1 (UniProt Q3B7T1) | inactive: 0.061 |
| DPY19L3 (UniProt Q6ZPD9) | inactive: -0.131 |
| EIF1B (UniProt O60739) | inactive: -0.004 |
| DPF1 isoform 2 (UniProt Q92782) | inactive: 0.093 |
| DPF3 isoform 3 (UniProt Q92784) | inactive: 0.165 |
| EFHD2 (UniProt Q96C19) | inactive: 0.04 |
| DPH6 (UniProt Q7L8W6) | inactive: -0.003 |
| DYNLL2 (UniProt Q96FJ2) | inactive: 0.027 |
| DPH2 (UniProt Q9BQC3) | inactive: 0.056 |
| DYNC2LI1 (UniProt Q8TCX1) | inactive: -0.052 |
| EFTUD2 (UniProt Q15029) | inactive: -0.012 |
| DUT (UniProt H0YMP1) | inactive: 0.259 |
| DRAP1 isoform 2 (UniProt Q14919) | inactive: -0.04 |
| DYNLL1 (UniProt P63167) | inactive: -0.057 |
| DUSP23 (UniProt Q9BVJ7) | inactive: -0.001 |
| EFHD1 (UniProt Q9BUP0) | inactive: 0.025 |
